Assay results: the supplement of paper PMC12067093, “Discovery and optimisation of a covalent ligand for TRIM25 and its application to targeted protein ubiquitination” (Chemical Science, 2025)
The list shows a part of the results.

Protein sequences, listed by entry. Tags and fused reporters are not part of them. Lines headed by an entry give the natural chain unless they say otherwise; changes in a name come on top.
UniProt O75170: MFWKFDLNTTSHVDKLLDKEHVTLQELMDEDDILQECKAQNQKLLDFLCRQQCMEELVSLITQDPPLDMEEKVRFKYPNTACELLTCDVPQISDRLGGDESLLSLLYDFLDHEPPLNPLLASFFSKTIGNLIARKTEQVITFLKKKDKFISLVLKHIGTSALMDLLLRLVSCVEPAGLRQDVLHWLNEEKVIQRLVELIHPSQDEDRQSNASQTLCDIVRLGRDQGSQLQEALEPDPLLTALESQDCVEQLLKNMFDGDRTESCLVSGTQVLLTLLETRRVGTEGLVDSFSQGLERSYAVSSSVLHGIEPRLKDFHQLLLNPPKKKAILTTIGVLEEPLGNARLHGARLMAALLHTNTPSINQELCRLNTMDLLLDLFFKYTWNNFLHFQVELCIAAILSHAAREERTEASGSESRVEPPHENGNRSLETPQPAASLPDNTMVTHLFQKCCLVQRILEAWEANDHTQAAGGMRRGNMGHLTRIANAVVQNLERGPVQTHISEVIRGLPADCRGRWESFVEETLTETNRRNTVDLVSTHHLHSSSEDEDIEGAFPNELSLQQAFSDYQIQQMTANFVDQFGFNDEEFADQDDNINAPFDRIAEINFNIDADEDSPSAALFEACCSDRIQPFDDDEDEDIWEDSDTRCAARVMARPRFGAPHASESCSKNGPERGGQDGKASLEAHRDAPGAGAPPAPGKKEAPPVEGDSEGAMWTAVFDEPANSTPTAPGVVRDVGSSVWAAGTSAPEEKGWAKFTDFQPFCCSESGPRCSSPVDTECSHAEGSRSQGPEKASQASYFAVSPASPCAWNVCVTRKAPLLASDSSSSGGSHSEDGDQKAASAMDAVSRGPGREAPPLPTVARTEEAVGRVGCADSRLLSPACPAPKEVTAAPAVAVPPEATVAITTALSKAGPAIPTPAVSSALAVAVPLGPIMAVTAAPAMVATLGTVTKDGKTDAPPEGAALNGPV
UniProt O15355: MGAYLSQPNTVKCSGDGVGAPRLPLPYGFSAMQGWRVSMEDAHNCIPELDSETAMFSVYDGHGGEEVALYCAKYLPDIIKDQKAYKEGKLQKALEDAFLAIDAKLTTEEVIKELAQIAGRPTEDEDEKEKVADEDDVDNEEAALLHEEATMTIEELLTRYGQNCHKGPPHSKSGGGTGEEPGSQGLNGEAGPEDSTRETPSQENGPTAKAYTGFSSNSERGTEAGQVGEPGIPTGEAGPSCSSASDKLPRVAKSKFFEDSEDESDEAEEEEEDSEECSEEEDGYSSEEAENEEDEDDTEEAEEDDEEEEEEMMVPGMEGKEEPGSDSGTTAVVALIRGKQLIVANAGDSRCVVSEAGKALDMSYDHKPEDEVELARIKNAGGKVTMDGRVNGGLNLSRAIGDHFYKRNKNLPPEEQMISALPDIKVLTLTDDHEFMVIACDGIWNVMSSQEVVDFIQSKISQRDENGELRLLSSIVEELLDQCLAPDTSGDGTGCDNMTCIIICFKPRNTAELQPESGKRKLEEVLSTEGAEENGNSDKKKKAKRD
UniProt Q96SB3: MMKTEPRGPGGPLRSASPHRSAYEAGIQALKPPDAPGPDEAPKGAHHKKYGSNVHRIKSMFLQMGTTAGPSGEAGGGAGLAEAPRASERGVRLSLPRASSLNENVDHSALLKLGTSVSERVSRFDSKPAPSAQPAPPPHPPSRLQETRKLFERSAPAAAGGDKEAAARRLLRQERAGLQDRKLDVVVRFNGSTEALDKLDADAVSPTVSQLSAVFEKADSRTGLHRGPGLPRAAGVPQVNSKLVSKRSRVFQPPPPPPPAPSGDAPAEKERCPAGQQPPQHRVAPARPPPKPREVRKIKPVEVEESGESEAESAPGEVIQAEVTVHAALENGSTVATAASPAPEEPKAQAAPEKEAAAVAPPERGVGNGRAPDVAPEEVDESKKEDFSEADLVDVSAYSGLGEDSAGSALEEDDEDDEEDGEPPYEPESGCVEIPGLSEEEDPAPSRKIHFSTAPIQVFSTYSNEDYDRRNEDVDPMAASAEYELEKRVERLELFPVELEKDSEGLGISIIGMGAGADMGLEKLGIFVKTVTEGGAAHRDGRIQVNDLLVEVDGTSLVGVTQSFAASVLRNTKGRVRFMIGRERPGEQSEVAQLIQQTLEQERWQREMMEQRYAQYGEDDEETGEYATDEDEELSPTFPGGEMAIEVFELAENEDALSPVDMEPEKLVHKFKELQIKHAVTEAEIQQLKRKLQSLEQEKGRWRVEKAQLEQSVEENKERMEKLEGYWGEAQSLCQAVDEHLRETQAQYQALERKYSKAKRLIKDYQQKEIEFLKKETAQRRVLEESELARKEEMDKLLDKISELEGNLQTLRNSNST
UniProt Q86WC6: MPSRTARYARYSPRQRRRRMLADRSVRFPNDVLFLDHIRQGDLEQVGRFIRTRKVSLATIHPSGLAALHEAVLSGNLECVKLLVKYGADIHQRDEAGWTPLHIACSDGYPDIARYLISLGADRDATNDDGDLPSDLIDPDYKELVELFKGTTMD
UniProt Q9UPN7: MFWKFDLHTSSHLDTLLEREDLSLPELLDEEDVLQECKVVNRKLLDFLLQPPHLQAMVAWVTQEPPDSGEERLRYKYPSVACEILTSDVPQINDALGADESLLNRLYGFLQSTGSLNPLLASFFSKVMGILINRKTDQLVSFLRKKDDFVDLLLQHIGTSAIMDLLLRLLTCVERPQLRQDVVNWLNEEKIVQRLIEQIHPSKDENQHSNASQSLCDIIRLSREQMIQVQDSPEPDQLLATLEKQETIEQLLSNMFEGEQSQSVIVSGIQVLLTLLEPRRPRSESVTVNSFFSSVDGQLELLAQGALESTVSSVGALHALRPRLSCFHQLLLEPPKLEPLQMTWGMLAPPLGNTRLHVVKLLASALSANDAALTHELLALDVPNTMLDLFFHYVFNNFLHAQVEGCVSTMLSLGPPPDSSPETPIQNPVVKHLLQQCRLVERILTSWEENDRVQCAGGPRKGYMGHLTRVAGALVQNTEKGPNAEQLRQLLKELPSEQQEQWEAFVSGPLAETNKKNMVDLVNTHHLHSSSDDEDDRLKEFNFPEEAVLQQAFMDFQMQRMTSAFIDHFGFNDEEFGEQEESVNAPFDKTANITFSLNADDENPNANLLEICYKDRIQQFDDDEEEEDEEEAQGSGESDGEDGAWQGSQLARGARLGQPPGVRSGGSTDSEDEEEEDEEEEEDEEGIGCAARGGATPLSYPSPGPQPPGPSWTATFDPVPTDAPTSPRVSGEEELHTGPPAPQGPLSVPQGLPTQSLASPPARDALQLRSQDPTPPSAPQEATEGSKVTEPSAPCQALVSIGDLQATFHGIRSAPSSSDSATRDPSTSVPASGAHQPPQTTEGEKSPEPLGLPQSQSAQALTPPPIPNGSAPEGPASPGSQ
UniProt Q13362, whole entry, looked up: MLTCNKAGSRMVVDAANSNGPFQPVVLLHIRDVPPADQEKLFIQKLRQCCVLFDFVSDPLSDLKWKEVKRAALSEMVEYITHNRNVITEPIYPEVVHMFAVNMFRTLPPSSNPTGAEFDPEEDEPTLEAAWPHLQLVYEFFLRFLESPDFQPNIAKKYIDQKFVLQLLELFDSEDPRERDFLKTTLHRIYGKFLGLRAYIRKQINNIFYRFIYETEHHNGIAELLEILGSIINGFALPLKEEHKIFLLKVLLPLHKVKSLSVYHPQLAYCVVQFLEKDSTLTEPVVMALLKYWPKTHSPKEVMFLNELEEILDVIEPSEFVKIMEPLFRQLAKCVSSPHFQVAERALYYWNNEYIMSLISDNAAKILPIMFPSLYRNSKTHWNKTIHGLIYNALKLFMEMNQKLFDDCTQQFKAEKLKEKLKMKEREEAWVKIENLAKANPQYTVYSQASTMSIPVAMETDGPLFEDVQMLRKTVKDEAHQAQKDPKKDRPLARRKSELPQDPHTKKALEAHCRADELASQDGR
UniProt Q8TCU6, whole entry, looked up: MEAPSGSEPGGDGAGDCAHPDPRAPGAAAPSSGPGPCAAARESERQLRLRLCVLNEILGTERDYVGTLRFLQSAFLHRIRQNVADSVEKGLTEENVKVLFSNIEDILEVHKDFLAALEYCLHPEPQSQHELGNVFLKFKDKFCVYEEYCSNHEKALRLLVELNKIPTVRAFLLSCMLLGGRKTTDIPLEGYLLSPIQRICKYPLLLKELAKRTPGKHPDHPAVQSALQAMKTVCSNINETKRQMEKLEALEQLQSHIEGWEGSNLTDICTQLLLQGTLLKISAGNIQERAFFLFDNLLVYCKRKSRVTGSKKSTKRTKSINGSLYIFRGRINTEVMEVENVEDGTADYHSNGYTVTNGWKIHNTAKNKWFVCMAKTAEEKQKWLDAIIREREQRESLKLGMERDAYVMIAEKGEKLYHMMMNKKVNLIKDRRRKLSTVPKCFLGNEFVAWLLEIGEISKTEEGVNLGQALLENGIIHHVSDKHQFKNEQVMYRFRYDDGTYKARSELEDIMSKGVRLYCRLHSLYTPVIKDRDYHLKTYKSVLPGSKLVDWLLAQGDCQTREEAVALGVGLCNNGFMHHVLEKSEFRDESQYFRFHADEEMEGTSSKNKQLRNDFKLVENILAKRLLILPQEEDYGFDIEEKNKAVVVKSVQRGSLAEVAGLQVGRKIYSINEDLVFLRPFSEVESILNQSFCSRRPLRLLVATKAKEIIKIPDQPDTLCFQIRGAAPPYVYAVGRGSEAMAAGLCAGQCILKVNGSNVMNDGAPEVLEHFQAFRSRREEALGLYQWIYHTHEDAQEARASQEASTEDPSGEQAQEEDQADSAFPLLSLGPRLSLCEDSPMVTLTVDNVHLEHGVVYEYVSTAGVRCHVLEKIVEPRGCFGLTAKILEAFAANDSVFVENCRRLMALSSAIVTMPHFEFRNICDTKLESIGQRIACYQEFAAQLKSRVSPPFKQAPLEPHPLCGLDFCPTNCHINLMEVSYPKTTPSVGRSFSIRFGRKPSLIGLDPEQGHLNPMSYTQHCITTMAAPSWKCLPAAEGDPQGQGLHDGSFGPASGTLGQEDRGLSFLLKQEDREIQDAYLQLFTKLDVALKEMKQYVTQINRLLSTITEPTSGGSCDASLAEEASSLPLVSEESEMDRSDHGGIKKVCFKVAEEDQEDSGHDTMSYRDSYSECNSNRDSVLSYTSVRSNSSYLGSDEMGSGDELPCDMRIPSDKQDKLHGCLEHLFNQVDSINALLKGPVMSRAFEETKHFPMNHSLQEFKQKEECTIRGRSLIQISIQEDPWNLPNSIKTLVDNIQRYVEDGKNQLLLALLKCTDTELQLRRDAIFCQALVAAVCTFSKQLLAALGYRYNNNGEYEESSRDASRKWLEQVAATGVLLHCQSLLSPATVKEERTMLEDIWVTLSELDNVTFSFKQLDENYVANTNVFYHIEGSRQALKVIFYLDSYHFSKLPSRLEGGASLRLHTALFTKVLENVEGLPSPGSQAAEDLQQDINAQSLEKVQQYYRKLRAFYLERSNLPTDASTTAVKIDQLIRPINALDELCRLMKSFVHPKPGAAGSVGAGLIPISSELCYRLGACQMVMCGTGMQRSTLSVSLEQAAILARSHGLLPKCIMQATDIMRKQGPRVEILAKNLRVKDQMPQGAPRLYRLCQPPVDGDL
UniProt P30048: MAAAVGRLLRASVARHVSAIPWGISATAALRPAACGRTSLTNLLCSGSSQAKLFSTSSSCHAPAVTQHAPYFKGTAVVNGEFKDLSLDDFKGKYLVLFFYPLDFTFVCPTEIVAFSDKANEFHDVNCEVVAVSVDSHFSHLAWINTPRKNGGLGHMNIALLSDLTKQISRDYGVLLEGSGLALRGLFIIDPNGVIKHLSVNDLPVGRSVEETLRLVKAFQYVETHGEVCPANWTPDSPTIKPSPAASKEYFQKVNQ
UniProt Q9ULR3: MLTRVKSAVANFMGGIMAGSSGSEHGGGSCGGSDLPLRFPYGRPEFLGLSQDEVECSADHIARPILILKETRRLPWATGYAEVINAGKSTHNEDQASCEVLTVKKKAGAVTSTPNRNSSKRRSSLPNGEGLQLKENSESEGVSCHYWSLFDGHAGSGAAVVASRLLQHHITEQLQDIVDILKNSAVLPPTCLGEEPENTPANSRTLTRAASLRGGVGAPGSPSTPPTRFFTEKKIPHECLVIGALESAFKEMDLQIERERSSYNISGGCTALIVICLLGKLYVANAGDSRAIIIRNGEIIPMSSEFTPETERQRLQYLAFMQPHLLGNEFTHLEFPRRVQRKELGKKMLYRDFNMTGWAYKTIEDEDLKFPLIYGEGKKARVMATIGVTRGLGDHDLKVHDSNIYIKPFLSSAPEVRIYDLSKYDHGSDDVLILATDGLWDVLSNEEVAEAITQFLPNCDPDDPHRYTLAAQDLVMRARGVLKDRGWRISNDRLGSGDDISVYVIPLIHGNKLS

Compound: Cc1cc(ccc1-c1ccccc1)C(=O)N1CCCN(CC1)C(=O)CCl [compound 10]
Test: probe-labelled cysteine peptide fold change vs DMSO (competition) (log2 fold change); higher = less target engagement (more negative = stronger competition)
Details: THP-1, incubation time: 4 h
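Note: competitive profiling in live THP-1 cells: cysteine peptides tagged with an iodoacetamide desthiobiotin (IA-DTB) probe, intensity after compound treatment relative to DMSO-treated cells.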

Target: PPP6R2_O75170_87_FKYPNTACELLTCDVPQISDR (UniProt O75170)
- probe-labelled cysteine peptide fold change (10 µM): -0.0517
- probe-labelled cysteine peptide fold change (50 µM): -0.285

Target: PPM1G_O15355_13_CSGDGVGAPR (UniProt O15355)
- probe-labelled cysteine peptide fold change (10 µM): -0.102
- probe-labelled cysteine peptide fold change (50 µM): -0.117

Target: PPP1R9B_Q96SB3_270_CPAGQQPPQHR (UniProt Q96SB3)
- probe-labelled cysteine peptide fold change (10 µM): -0.0566
- probe-labelled cysteine peptide fold change (50 µM): -0.264

Target: PPP1R27_Q86WC6_79_KVSLATIHPSGLAALHEAVLSGNLECVK (UniProt Q86WC6)
- probe-labelled cysteine peptide fold change (10 µM): 0.305
- probe-labelled cysteine peptide fold change (50 µM): 0.00964

Target: PPP6R1_Q9UPN7_172_LLTCVERPQLR (UniProt Q9UPN7)
- probe-labelled cysteine peptide fold change (10 µM): -0.171
- probe-labelled cysteine peptide fold change (50 µM): 0.543

Target: PPM1G_O15355_241_GTEAGQVGEPGIPTGEAGPSCSSASDK (UniProt O15355)
- probe-labelled cysteine peptide fold change (10 µM): 0.0822
- probe-labelled cysteine peptide fold change (50 µM): 0.026

Target: PPP2R5C_Q13362_50_QCCVLFDFVSDPLSDLK (UniProt Q13362)
- probe-labelled cysteine peptide fold change (10 µM): -0.00357
- probe-labelled cysteine peptide fold change (50 µM): -0.0849

Target: PPIP5K2_O43314_382_CVIAVIR (UniProt O43314)
- probe-labelled cysteine peptide fold change (10 µM): -0.0316
- probe-labelled cysteine peptide fold change (50 µM): 0.0615

Target: PREX1_Q8TCU6_1221_LHGCLEHLFNQVDSINALLK (UniProt Q8TCU6)
- probe-labelled cysteine peptide fold change (10 µM): 0.0574
- probe-labelled cysteine peptide fold change (50 µM): 0.188

Target: PRDX3_P30048_60_LFSTSSSCHAPAVTQHAPYFK (UniProt P30048)
- probe-labelled cysteine peptide fold change (10 µM): -0.0465
- probe-labelled cysteine peptide fold change (50 µM): 0.0639

Target: PPP4R1_Q8TF05_198_TEAVAIMCK (UniProt Q8TF05)
- probe-labelled cysteine peptide fold change (10 µM): 0.224
- probe-labelled cysteine peptide fold change (50 µM): 0.0475

Target: PPT1_P50897_46_ALQHLDPPAPLPLVIWHGMGDSCCNPLSMGAIK (UniProt P50897)
- probe-labelled cysteine peptide fold change (10 µM): -0.0778
- probe-labelled cysteine peptide fold change (50 µM): -0.262

Target: PPM1H_Q9ULR3_239_KIPHECLVIGALESAFK (UniProt Q9ULR3)
- probe-labelled cysteine peptide fold change (10 µM): -0.0444
- probe-labelled cysteine peptide fold change (50 µM): -0.137

Target: PPWD1_Q96BP3_287_AYPTSVCFSPDGK (UniProt Q96BP3)
- probe-labelled cysteine peptide fold change (10 µM): 0.0829
- probe-labelled cysteine peptide fold change (50 µM): 0.156
